{"sequences": {"note": "Amino acid sequences for entries named in this document (tags omitted). A change or cut given only in a name is not applied to a line headed by its entry.", "UniProt P01019": "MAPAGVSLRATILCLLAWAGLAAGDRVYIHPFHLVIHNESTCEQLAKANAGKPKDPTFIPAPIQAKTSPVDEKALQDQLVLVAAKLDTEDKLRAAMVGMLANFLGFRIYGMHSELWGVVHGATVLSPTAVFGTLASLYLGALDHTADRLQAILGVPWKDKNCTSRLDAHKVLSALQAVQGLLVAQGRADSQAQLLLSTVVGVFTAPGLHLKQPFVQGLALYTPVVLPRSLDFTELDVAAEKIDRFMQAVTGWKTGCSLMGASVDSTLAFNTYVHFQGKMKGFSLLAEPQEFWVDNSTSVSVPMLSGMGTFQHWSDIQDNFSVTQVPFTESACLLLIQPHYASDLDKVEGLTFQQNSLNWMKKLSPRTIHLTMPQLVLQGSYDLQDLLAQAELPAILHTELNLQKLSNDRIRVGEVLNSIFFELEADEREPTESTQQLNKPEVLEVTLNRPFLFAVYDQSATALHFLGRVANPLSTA"}, "source": "patent US20080015224A1", "about": "“Nitroxide superoxide dismutase mimetics to treat extracellular superoxide dismutase deficiencies” (priority 2006, published 2008)", "tested_on": "kidney cortex of EC-SOD +/+ and −/− mice", "assay": "SOD activity in kidneys of Ang II-infused mice (chemiluminescence)", "type": "in vivo, mouse", "details": "Ang II 400 ng/kg per minute", "data": [{"substance": "angiotensin II (DRVYIHPF; Angiotensin-2; UniProt P01019 25-32, looked up) [Ang II, pressor peptide infused subcutaneously by osmotic minipump]", "values": [{"measurement": "SOD activity in the kidneys of Ang II-infused mice", "setting": "EC-SOD +/+", "result": "8.8±1.2", "unit": "U/mg protein^−1"}, {"measurement": "SOD activity in the kidneys of Ang II-infused mice", "setting": "EC-SOD −/−", "result": "13.7±1.6", "unit": "U/mg protein^−1"}]}]}
